The record followed here is PubChem BioAssay AID445 (National Center for Advancing Translational Sciences (NCATS), 2006).

Molecules are shown by their SMILES. The list shows a part of the results. Further columns of the screen follow, without active or inactive calls. Most of these compounds were active or inconclusive in the main read-out, so they are no random draw. Words in brackets tell the shape of the fitted curve; partial curves, single points and poor fits give uncertain potencies.

The term AC50 denotes the midpoint of the concentration-response curve, whichever way the signal moves.

This experiment is described as follows: IkB Signaling. As to conditions: ABC-DLBCL IkBa-CBG/CBR dual luciferase ratio (green luciferase fused to IkBa over red control in OCI-Ly3 lymphoma cells), 4 h. The essentials:
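In this assay, an IκBα–CBG68 fusion accumulates when IKK-driven degradation is blocked; native CBR normalizes for cell number. OCI-Ly3 cells were treated 4 h with compound and doxycycline, then green and red light read after Chroma-Glo addition.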

The mark [1] stands for this setting: measured here: control luc red channel unless noted.

`CC1CCN(C(=O)c2c(NC(=O)c3ccccc3F)sc3c2CCC(C(C)(C)C)C3)CC1` (stereo not given): the AC50 under setting [1] is 12.6 µM [falling, partial curve].

`CCOc1cc(C2C(C(=O)OC)=C(C)NC3=C2C(=O)c2ccccc23)c(Br)cc1OC` (stereo not given): the AC50 under setting [1] is 31.6 µM [falling, partial curve].

With `Nc1nc(-c2ccccc2)nc(-c2ccccc2O)n1`, the AC50 under setting [1] was 15.8 µM [falling, partial curve].

On to `Cn1c(/N=C/c2c(O)ccc3ccccc23)nc2ccccc21`, for which, under setting [1], the half-maximal activity concentration (AC50) is 20 µM [falling, partial curve].

As for `CCn1c(COc2ccc(C)cc2)nnc1SCC(=O)Nc1cc(OC)ccc1OC`, under setting [1], the AC50 was 25.1 µM [falling, partial curve].

As to `CCCCN(CCCNC(=O)CN1N=C(c2ccccc2)CCC1=O)c1ccccc1`, the AC50 under setting [1] was 25.1 µM [falling, single point].

For `CCCCSc1nnc2n(-c3cccc(C)c3)c(=O)c3c4c(sc3n12)CCCC4`, the AC50 under setting [1] is 15.8 µM [falling, partial curve].

With `COc1ccc(NC(=O)COCc2cc(-c3ccco3)on2)cc1`, the AC50 under setting [1] was 5.01 µM [rising, full curve, poor fit].

`COc1ccc(NC(=O)CSc2nc3ccccc3[nH]2)cc1`: the AC50 under setting [1] was 12.6 µM [falling, partial curve].

Turning to `CCCCC(CC)CNC(=O)CCCc1nnc2n(CCC)c(=O)c3sccc3n12` (stereo not given), the AC50 under setting [1] was 10 µM [falling, partial curve].

Take `Cc1cccc(N2CCN(C(=O)c3ccc4c(c3)N(Cc3ccccc3F)C(=O)c3ccccc3S4=O)CC2C)c1` (stereo not given): the AC50 under setting [1] was 3.98 µM [falling, full curve, poor fit].

Regarding `COc1cc2c(=O)c(C(=O)c3ccc(C)c(C)c3)cn(Cc3ccccc3)c2cc1OC`, under setting [1], the AC50 is 25.1 µM [falling, single point].

Consider `COc1ccc(-c2cc3nc(C)c(CCC(=O)N4CCN(c5ccccc5)CC4)c(C)n3n2)c(OC)c1`, for which the AC50 under setting [1] is 2.51 µM [falling, partial curve].

`Cc1cc(C)c2nc(NC(=O)c3ccc(S(=O)(=O)N4CCCC4)cc3)sc2c1`: the AC50 under setting [1] is 0.158 µM [falling, full curve].

On to `Cc1nn(C)c(C)c1CNC(=O)c1cc2n(n1)C(C(F)(F)F)CC(c1cccs1)N2` (stereo not given), for which, under setting [1], the AC50 is 12.6 µM [falling, partial curve].

With `Cc1ccc(-c2nnc(N3CCCCC3)c3ccccc23)cc1S(=O)(=O)N1CCN(C)CC1`, the AC50 under setting [1] is 12.6 µM [falling, partial curve].

Take `COc1ccc(C2CC(=O)c3cnc(NC(=O)c4cc(OC)cc(OC)c4)nc3C2)cc1` (stereo not given): under setting [1], the AC50 is 0.794 µM [falling, full curve].

For the compound `O=C(CSc1nnc(COc2ccc(Cl)cc2)o1)Nc1ccccc1`, the AC50 under setting [1] was 6.31 µM [falling, partial curve].

With `COC(=O)c1c(C)oc2ccc(N(C(=O)c3ccncc3)S(=O)(=O)c3cc(C)c(C)cc3C)cc12`, the AC50 under setting [1] is 3.16 µM [falling, full curve].

In the case of `COc1ccc(C(CC(=O)Nc2ccc(C)cn2)N2Cc3ccccc3C2=O)cc1OC` (stereo not given), the half-maximal activity concentration (AC50) under setting [1] is 6.31 µM [rising, partial curve].

As for `COc1ccc2c(c1)c(CC(=O)N1CCOCC1)c(C)n2C(=O)c1ccc(Cl)cc1`, the AC50 under setting [1] was 39.8 µM [falling, partial curve].

Turning to `CCC(CC)C(=O)Nc1nnc(SCC(=O)N2CCN(c3ccccc3OC)CC2)s1`, the AC50 under setting [1] was 31.6 µM [falling, partial curve].

Consider `COc1ccc(-n2nc(C(=O)NCCc3ccc(Cl)cc3)c3c4ccccc4n(C)c3c2=O)cc1Cl`, for which, under setting [1], the AC50 is 3.98 µM [falling, partial curve].

Turning to `O=c1c2cn[nH]c2nc(SCc2ccc3c(c2)OCCO3)n1-c1ccccc1`, the AC50 is 20 µM [falling, partial curve] (measured here: IkB-luc green channel) and 31.6 µM [falling, single point] (measured here: control luc red channel).

Take `N#C/C(=C\c1ccc(-c2ccccc2C(=O)O)o1)c1nc2ccccc2[nH]1`: the concentration at half-maximal activity (AC50) under setting [1] is 25.1 µM [falling, partial curve].

Regarding `COc1cc(C2NC(=O)NC(c3ccccc3)=C2C(C)=O)ccc1OCC(=O)O` (stereo not given), under setting [1], the AC50 is 10 µM [falling, partial curve].

For `CCCNS(=O)(=O)c1ccc(CCC(=O)N2CCCCC2)cc1`, under setting [1], the AC50 was 25.1 µM [falling, single point].

As to `CCc1noc(-c2ccc(NC(C)c3ccccc3)c([N+](=O)[O-])c2)n1` (stereo not given), the AC50 under setting [1] is 0.1 µM [rising, full curve].

On to `CCN(CC)C(=O)C1=C(C)Nc2nc3ccccc3n2C1c1ccc(Br)cc1` (stereo not given), for which, under setting [1], the AC50 is 15.8 µM [falling, single point].

With `CC(=O)c1cccc(NC(=O)CCS(=O)(=O)c2cc3c(cc2C)NC(=O)CO3)c1`, the AC50 under setting [1] is 12.6 µM [falling, partial curve].

`Cc1ccc(CNC(=O)C2c3ccccc3C(=O)N(C)C2c2c[nH]c3ccccc23)o1` (stereo not given): the concentration at half-maximal activity (AC50) under setting [1] is 10 µM [falling, partial curve].

Take `CN(C)S(=O)(=O)n1cc(/C=C(\NC(=O)c2ccccc2F)C(=O)NCCCn2ccnc2)c2ccccc21`: under setting [1], the AC50 is 20 µM [falling, single point].

Regarding `Cc1ccccc1CN1CCC(CNc2ncnc3onc(-c4ccc(Cl)cc4)c23)CC1`, under setting [1], the AC50 was 31.6 µM [falling, single point].

As to `Cc1nc2sccn2c1-c1nc(-c2cc3ccccc3o2)cs1`, the AC50 under setting [1] was 39.8 µM [falling, single point].

As to `CCOc1ccc(NC(=O)c2c(NC(=O)c3ccco3)sc3c2CCC(C(C)(C)C)C3)cc1` (stereo not given), the AC50 under setting [1] is 39.8 µM [falling, partial curve, poor fit].

On to `COc1cc(NS(=O)(=O)c2ccc(NC(=O)C(C)Oc3ccc(Cl)cc3Cl)cc2)nc(OC)n1` (stereo not given), for which the AC50 under setting [1] is 15.8 µM [falling, partial curve].

`COc1ccc(Nc2c(-c3ccc(Cl)cc3)nc3cnccn23)cc1OC`: under setting [1], the AC50 is 39.8 µM [falling, single point].

As to `O=C(NCc1ccccc1Cl)C1CCN(S(=O)(=O)c2ccc3c(c2)CCCN3C(=O)C2CCC2)CC1`, the AC50 under setting [1] was 2 µM [rising, partial curve].

As for `CC(O)c1ccc2c(c1)OCCOCCN(C)CCOCCO2` (stereo not given), the AC50 under setting [1] was 126 nM [rising, full curve] [measured here: IkB-luc green channel].
